These are yes or no findings as the source states them, for the method shown. Binding can be weak; no strength is given. For some of these results: In cells and extracts the contact can be indirect.
Experiments:
VN173-DDX39B = VN173-DDX39B (UniProt Q13838); assay: split reporter; BiFC in living NSCLC cells co-transfected with VN173 and VC155 fusion plasmids; reconstituted fluorophore signal
[1] = target: Flag-DDX39B (DExD-box helicase 39B) (UniProt Q13838); assay: co-IP; exogenous co-IP in NSCLC cell lines (A549, H1299); anti-Flag magnetic beads overnight at 4 °C, 5 washes with TBS, Western blot
[2] = target: Flag-DDX39B (in 293T cells) (UniProt Q13838); assay: co-IP; tandem affinity purification from lysates of 293T cells co-transfected with Flag-DDX39B and HA-ECAD, using anti-Flag and anti-HA magnetic beads
GST-DDX39B = GST-DDX39B (UniProt Q13838); assay: pull-down; GST pull-down of purified recombinant proteins; GST agarose, incubation at 4 °C overnight, 5 rinses with TBS, elution with 1% SDS, immunoblot; both purified
[3] = target: GST-ECD (GST-tagged ECAD cytoplasmic domain) (UniProt P12830); assay: as above
GST-TRIM28 = GST-TRIM28 (UniProt Q13263); assay: as above
HA-ECAD (in 293T cells) = HA-ECAD (in 293T cells) (UniProt P12830); assay: co-IP; tandem affinity purification from lysates of 293T cells co-transfected with Flag-DDX39B and HA-ECAD, using anti-Flag and anti-HA magnetic beads
[4] = target: E-cadherin (ECAD), endogenous (human (endogenous in A549 and H1299)); assay: co-IP; co-IP from NSCLC cell lysates (A549, H1299, A549-BM) with the indicated antibodies or normal IgG overnight at 4 °C, 5 washes with TBS, Western blot; also after EGF (30 ng/ml) or TGF-β (10 ng/ml) for 72 h, and in cells overexpressing DDX39B WT, P322A or 3KR

Protein sequences, listed by entry. Tags and fused reporters are not part of them. Lines headed by an entry give the natural chain unless they say otherwise; changes in a name come on top.
UniProt Q13838: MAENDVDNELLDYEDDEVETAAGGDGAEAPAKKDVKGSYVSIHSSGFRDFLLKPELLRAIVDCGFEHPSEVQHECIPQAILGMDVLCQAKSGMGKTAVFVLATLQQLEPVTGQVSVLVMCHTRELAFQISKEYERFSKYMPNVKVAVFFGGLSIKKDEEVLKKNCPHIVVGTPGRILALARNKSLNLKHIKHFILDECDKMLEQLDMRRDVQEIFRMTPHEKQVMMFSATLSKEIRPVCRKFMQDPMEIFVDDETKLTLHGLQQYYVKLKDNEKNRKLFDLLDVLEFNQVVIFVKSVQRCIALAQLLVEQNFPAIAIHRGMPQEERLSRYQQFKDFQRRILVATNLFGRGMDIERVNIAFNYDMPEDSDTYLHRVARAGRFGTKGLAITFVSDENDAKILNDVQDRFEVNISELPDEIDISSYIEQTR
UniProt P12830: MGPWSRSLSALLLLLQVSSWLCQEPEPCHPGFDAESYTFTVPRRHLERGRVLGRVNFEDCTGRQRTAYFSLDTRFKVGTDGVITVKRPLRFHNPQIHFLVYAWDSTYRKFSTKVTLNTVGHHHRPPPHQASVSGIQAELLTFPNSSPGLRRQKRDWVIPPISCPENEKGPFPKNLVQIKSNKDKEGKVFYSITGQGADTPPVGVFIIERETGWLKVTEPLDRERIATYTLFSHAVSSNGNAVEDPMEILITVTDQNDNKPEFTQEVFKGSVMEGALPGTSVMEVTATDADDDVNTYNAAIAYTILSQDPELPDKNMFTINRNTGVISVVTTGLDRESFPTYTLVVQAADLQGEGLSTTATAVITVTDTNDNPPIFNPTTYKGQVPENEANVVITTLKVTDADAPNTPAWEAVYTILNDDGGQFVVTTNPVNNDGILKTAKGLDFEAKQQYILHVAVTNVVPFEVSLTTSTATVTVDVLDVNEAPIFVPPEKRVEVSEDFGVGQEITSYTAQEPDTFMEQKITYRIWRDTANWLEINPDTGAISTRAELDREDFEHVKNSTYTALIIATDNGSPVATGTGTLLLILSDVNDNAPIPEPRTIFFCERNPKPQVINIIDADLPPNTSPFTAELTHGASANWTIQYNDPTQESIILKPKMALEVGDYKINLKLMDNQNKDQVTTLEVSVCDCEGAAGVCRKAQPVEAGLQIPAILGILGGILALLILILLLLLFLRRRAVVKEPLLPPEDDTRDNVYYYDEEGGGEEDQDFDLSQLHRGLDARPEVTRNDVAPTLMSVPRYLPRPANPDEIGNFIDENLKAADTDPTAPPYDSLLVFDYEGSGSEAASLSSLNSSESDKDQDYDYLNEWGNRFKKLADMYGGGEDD
UniProt Q13263: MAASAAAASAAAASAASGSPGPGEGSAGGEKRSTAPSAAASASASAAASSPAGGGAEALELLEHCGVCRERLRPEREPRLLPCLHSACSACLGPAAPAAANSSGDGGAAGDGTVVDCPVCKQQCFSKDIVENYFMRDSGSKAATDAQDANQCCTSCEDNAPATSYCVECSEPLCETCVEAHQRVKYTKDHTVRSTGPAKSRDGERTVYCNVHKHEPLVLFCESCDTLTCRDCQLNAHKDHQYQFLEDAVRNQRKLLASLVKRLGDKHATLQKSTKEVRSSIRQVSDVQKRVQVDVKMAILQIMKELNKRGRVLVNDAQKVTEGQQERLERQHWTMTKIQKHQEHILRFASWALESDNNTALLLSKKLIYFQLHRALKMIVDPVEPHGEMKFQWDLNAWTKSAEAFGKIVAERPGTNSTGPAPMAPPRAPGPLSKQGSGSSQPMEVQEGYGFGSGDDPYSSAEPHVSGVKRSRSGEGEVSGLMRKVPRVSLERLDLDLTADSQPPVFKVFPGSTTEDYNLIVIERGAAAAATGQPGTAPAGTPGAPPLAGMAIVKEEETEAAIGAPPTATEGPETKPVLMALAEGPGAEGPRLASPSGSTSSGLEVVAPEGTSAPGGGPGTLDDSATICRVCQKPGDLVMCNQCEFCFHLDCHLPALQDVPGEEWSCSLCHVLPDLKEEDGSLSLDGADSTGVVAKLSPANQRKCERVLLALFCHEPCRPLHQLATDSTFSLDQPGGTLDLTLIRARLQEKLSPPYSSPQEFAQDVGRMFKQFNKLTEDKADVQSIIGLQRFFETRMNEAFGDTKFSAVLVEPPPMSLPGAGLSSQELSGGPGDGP

Q: For VC155-ECAD (from UniProt P12830), which binding (VN173-DDX39B) is on record?
A: binds

Q: “TRIM28 (tripartite motif-containing 28), endogenous (from UniProt Q13263 1-835)” was tested. Which binding [1] did it give?
A: binds

Q: “HA-ECAD (in 293T cells) (from UniProt P12830)” was tested. Which binding [2] did it give?
A: binds

Q: Which binding (GST-DDX39B) does the source give for His-TRIM28 (from UniProt Q13263 1-835) here?
A: binds

Q: For “His-DDX39B (wild type) (from UniProt Q13838)”, which binding [3] is on record?
A: binds

Q: And the binding (GST-TRIM28)?
A: binds

Q: With “VC155-TRIM28 (from UniProt Q13263 1-835)” as the molecule, how does the binding (VN173-DDX39B) read?
A: binds

B1: Hakai (E3 ubiquitin ligase) (protein, UniProt Q75N03 1-491)
chain: MDHTDNELQGTNSSGSLGGLDVRRRIPIKLISKQANKAKPAPRTQRTINRMPAKAPPGDEEGFDYNEEERYDCKGGELFANQRRFPGHLFWDFQINILGEKDDTPVHFCDKCGLPIKIYGRMIPCKHVFCYDCAILHEKKGDKMCPGCSDPVQRIEQCTRGSLFMCSIVQGCKRTYLSQRDLQAHINHRHMRAGKPVTRASLENVHPPIAPPPTEIPERFIMPPDKHHMSHIPPKQHIMMPPPPLQHVPHEHYNQPHEDIRAPPAELSMAPPPPRSVSQETFRISTRKHSNLITVPIQDDSNSGAREPPPPAPAPAHHHPEYQGQPVVSHPHHIMPPQQHYAPPPPPPPPISHPMPHPPQAAGTPHLVYSQAPPPPMTSAPPPITPPPGHIIAQMPPYMNHPPPGPPPPQHGGPPVTAPPPHHYNPNSLPQFTEDQGTLSPPFTQPGGMSPGIWPAPRGPPPPPRLQGPPSQTPLPGPHHPDQTRYRPYYQ
Q: What does the source list for B1?
A: binding [2]: binds; binding (HA-ECAD (in 293T cells)): binds; binding [4]: binds

— PMC12263876, “DDX39B K63-linked ubiquitination mediated by TRIM28 promotes NSCLC metastasis by enhancing ECAD lysosomal degradation” (Signal Transduction and Targeted Therapy, 2025)
